Assay results as given in patent US20220184184A1, “GLUCOSE SENSITIVE INSULIN DERIVATIVES” (Novo Nordisk A/S, priority 2019, published 2022).
For at least one compound, name, drawing or mass did not settle the structure.

Assay: Alizarin red (ARS) colorimetric displacement assay, binding of boron compounds to glucose
Conditions: statement in words
Method: The alizarin-red binding assay is a colorimetric assay used to determine the inhibition affinity of boronate/boroxole compounds to glucose. The assay is based on a colour shift of alizarin-red upon binding to boronate, which shift can be followed by change in absorbance in the 330-340 nm region. […] After 5 minutes of centrifugation at 4000 rpm, the plate is placed in a multi-well spectrometer (SpectraMax, Molecular Devices) for absorption detection. […] Upon complete dissolution of the compound, 200 μM of Alizarin red (ARS) is added to the solution. The ARS-boronate solution is then aliquoted into a 96 multiwell plate (black, flat and clear bottom) 1:1 with appropriate carbohydrate. […] The plate with ARS-boronate mixed with carbohydrate is incubated 20 minutes at room temperature. After 5 minutes of centrifugation at 4000 rpm the plate is placed in a multiwell spectrometer (SpectraMax, Molecular Devices) for absorption detection.

For `O=C(O)c1ccc2c(c1)B(O)OC2` [Example 41, 1-hydroxy-1,3-dihydrobenzo[c][1,2]oxaborole-6-carboxylic acid], the “affinity to glucose compared with the diboron compounds” value was “weaker affinity to glucose”.
